According to the supplement of paper PMC10849652:
The other results are listed elsewhere or left out.

Protein sequences, listed by entry. Tags and fused reporters are not part of them. Lines headed by an entry give the natural chain unless they say otherwise; changes in a name come on top.
UniProt O60266: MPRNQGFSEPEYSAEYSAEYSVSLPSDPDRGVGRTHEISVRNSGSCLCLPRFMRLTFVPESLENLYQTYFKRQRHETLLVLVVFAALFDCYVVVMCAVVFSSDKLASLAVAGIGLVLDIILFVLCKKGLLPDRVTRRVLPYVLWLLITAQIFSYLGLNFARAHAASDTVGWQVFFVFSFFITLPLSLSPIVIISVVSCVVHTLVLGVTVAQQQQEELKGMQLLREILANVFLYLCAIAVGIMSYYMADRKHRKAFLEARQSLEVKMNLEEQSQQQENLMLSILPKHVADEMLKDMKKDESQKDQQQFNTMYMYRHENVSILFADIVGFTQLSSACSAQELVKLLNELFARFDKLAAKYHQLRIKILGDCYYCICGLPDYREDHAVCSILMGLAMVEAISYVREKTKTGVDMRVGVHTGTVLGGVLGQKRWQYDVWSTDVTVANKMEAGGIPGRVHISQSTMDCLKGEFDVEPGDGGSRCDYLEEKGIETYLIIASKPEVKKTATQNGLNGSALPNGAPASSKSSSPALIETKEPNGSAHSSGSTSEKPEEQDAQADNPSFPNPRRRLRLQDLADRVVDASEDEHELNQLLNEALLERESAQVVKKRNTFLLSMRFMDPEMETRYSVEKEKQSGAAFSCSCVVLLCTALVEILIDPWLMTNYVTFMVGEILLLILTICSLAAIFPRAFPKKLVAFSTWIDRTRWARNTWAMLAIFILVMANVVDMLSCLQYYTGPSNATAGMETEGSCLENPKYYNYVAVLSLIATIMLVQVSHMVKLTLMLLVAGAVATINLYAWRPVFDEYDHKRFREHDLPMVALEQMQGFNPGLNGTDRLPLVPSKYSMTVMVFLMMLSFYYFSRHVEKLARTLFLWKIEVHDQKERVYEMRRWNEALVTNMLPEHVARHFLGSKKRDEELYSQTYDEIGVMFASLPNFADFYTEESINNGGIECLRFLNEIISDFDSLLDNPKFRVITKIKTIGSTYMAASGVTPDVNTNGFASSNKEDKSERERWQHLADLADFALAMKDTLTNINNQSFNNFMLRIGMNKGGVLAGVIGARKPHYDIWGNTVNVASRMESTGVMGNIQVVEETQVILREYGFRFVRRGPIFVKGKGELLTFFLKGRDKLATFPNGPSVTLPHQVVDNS
UniProt Q8WYP5: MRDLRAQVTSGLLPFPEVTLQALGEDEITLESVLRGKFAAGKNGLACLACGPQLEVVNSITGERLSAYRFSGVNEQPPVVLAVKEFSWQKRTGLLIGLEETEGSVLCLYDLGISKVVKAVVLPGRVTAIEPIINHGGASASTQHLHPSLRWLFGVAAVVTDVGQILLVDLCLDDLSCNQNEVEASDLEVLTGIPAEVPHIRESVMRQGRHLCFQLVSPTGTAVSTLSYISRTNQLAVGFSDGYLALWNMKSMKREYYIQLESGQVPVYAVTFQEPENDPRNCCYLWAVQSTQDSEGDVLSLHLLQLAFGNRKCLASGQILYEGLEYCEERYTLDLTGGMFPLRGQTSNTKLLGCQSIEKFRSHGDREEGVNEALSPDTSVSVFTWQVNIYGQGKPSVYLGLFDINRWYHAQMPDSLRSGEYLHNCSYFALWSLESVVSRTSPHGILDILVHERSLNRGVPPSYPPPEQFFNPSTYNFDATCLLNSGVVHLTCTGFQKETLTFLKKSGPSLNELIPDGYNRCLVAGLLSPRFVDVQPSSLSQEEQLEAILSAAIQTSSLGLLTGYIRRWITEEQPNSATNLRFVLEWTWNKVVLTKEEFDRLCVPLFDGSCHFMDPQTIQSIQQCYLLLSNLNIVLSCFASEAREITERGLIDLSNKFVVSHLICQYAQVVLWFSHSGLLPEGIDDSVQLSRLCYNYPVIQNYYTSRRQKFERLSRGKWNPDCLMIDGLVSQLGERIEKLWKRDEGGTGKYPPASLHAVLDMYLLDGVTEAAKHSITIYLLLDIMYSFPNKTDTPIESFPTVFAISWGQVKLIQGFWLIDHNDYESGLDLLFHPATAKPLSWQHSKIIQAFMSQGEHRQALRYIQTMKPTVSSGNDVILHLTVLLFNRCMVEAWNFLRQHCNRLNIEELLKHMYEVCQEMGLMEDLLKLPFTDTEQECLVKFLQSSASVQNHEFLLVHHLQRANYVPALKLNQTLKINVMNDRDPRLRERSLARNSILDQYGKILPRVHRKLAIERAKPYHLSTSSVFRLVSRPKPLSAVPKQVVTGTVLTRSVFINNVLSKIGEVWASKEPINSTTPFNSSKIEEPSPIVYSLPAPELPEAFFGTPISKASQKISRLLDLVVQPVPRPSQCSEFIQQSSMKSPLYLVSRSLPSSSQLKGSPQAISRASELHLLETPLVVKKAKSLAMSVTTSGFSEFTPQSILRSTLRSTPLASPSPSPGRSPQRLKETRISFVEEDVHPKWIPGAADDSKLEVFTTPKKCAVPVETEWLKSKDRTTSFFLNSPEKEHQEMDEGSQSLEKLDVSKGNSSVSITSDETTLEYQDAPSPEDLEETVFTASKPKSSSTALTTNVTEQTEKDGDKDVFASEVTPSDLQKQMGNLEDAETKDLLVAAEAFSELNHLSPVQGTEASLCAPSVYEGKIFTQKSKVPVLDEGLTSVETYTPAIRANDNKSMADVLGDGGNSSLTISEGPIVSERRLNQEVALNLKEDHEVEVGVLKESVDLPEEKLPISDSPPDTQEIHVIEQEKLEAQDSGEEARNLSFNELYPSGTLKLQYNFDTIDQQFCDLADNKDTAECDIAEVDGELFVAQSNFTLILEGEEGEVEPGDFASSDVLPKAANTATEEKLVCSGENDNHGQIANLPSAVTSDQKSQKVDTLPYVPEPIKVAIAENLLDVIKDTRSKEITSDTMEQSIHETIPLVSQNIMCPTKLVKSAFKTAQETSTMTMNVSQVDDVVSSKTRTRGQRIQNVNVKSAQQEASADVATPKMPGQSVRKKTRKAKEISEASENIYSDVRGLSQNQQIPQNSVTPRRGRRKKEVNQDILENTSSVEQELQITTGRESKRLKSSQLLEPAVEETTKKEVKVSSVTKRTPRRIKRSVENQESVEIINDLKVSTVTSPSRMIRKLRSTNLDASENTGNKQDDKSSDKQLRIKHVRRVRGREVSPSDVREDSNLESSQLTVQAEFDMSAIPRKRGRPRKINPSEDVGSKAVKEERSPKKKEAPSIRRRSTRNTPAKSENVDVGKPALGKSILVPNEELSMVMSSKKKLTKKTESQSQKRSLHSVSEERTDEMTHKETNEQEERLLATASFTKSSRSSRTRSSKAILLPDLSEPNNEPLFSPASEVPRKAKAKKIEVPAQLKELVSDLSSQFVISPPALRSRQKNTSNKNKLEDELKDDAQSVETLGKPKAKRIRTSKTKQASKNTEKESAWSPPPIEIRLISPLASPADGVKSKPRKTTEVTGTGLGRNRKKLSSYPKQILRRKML
UniProt P51828: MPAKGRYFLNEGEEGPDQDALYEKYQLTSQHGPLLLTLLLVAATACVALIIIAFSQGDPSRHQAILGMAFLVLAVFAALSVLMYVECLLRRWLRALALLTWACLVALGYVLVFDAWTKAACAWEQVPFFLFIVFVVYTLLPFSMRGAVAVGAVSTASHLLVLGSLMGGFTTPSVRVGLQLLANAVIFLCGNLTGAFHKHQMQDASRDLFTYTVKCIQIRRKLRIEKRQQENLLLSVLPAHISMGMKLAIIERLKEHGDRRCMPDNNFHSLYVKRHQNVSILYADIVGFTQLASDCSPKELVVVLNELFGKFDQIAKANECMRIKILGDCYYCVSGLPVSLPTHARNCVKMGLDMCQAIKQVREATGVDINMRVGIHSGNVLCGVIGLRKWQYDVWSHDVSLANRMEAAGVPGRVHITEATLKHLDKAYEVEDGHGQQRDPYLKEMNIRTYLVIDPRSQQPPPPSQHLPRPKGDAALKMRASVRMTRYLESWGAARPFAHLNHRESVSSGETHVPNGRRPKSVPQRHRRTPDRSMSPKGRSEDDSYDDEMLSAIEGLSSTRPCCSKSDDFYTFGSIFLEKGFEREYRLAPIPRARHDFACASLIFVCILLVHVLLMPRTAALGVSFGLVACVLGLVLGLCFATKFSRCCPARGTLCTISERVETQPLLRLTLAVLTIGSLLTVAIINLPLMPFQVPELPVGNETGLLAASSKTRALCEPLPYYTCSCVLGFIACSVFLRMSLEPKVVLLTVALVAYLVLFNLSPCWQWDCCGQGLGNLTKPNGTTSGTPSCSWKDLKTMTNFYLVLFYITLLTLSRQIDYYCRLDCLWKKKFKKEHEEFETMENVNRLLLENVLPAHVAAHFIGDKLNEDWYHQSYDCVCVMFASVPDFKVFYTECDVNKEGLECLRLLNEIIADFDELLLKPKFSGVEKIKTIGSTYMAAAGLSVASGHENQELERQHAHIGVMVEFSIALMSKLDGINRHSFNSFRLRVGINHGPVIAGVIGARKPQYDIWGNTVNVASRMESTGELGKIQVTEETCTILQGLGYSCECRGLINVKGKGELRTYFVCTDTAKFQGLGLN
UniProt Q9NUB1: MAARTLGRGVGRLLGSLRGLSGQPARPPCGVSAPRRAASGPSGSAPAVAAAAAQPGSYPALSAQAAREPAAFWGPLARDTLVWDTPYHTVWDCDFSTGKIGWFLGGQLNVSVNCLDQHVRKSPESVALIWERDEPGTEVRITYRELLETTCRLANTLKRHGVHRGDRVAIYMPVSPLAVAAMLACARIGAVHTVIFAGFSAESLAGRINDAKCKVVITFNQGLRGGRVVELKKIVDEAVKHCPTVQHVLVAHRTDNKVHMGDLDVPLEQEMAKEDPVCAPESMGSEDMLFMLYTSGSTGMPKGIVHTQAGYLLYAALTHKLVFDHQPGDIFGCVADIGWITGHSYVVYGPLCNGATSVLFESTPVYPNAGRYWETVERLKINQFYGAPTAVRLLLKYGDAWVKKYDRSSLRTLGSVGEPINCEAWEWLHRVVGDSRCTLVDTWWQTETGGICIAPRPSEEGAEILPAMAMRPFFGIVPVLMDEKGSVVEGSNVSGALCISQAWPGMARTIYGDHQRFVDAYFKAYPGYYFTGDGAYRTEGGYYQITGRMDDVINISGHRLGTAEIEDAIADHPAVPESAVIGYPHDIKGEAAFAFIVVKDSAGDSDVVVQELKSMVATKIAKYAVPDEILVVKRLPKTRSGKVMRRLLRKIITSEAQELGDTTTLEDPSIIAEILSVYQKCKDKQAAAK
UniProt Q8NHP1: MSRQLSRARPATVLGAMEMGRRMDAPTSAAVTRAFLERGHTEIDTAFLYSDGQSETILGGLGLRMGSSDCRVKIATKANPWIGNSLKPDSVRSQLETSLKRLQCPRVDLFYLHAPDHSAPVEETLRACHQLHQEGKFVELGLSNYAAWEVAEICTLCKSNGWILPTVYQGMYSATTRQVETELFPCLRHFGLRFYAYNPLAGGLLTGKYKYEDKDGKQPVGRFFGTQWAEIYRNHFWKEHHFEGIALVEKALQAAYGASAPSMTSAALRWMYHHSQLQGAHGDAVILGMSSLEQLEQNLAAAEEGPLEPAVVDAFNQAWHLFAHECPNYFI
UniProt Q3MIX3: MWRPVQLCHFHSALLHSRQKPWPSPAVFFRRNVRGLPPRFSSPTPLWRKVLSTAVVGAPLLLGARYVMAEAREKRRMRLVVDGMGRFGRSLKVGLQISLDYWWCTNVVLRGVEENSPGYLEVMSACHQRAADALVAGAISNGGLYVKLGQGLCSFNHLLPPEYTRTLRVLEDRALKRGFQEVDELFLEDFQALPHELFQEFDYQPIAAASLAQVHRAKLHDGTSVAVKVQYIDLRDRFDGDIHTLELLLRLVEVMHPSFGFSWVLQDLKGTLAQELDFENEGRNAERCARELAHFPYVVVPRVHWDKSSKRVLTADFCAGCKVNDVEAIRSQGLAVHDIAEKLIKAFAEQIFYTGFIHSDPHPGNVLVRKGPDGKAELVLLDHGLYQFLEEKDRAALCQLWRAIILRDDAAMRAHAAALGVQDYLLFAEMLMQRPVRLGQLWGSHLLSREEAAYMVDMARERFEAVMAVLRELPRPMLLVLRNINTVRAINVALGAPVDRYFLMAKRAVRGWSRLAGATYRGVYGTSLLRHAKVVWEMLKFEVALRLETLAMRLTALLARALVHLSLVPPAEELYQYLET
UniProt Q13155: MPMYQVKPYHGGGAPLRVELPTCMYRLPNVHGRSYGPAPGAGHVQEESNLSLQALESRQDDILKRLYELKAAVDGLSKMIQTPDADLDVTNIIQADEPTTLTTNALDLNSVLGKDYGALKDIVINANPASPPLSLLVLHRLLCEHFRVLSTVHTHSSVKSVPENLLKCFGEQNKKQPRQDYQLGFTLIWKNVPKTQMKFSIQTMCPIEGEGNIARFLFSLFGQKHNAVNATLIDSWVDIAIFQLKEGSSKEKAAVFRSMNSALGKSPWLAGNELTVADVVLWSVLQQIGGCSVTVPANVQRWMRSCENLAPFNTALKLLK
UniProt Q6RW13: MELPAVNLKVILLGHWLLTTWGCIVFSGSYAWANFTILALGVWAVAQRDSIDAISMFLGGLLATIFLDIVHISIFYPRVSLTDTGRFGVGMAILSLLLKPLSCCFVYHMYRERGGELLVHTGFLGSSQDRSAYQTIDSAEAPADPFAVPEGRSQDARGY

compound: CC(C)C1=C2N=C(C=C(N2N=C1)NCC3=CC=CC=C3)NCCCCCCN; test: log2 fold change, soluble protein after heating vs DMSO (PISA); higher = thermal stabilisation; K562 lysate, 10 uM; active = over 0.2 and 3.5 SD of the protein, either way, in both replicates (recomputed)
How it was run: (§1)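 Pellets of K562 cells were dounce-homogenised in PBS pH 7.4 with 1 mM MgCl2, and the crude extract was held at 1 mg/mL protein for a 30 min treatment with 10 μM compound. Aliquots were heated for 3 min over 48°C-58°C and pooled before NP-40 was added to 0.5% at 4°C. The supernatant from 21,000xg for 90 min was quantified by TMTpro 16plex LC-MS/MS with channel sums equalised. Values are reported from duplicates as log-two fold change in thermal stability relative to solvent controls.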

Target	log2 fold change
ADCY3 (UniProt O60266)	inactive: 0.367
ACP5 (UniProt P13686)	inactive: 0.064
AHCTF1 isoform 2 (UniProt Q8WYP5)	inactive: 0.05
ADCY7 (UniProt P51828)	inactive: -0.159

compound: CC1=C(C(CC(=O)N1)C2=CC=C(C=C2)C(F)(F)F)C(=O)NC3=C(C=C4C(=C3)C=NN4)F; test: as above
How it was run: as §1

Target	log2 fold change
ADK, A0A5F9ZH76	inactive: -0.156
ACSS1 (UniProt Q9NUB1)	inactive: -0.134
AGO2 (UniProt E5RJY2)	inactive: -0.252
AKR7L (UniProt Q8NHP1)	inactive: 0.121
ACTB, A0A2R8YEA7	inactive: -0.024
ACTB (UniProt C9JUM1)	inactive: 0.114
ACTB (UniProt C9JTX5)	inactive: 0.063
ACTN4 (UniProt K7EJH8)	inactive: -0.096
ACVR1 (UniProt Q04771)	inactive: -0.152
ADCK5 (UniProt Q3MIX3)	inactive: -0.008
AHSP (UniProt Q9NZD4)	inactive: 0.004
ADCY7 (UniProt P51828)	inactive: 0.083

compound: CC1=C(C2=C(C=C1)C(=O)C3=CC=CC=C3N2CCCN)C; test: as above
How it was run: as §1

Target	log2 fold change
ACSS1 (UniProt Q9NUB1)	inactive: -0.044
ADCY3 (UniProt O60266)	inactive: 0.075
ACTN4 (UniProt H7C144)	inactive: -0.064
AKR7L (UniProt Q8NHP1)	inactive: 0.074
ACTB (UniProt C9JTX5)	inactive: -0.094
AKR1B10 (UniProt O60218)	inactive: 1.93
ACTN4 (UniProt K7EJH8)	inactive: -0.061
ACOX3 (UniProt O15254)	inactive: 0.087
ACVR1 (UniProt Q04771)	inactive: -0.02
ADCK5 (UniProt Q3MIX3)	inactive: -0.116
AJUBA (UniProt Q96IF1)	inactive: -0.183
ADCY7 (UniProt P51828)	inactive: -0.27
ADAD1 (UniProt Q96M93)	inactive: -0.015

compound: CC1=C(C=C(C=C1)NC(=O)C2=CC(=CC=C2)C(C)(C)C#N)NC3=CC4=C(C=C3)N=CN(C4=O)C; test: as above
How it was run: as §1

Target	log2 fold change
ADPRM (UniProt Q3LIE5)	inactive: -0.39
ACSS1 (UniProt Q9NUB1)	inactive: 0.024
ADD3 isoform 2 (UniProt Q9UEY8)	inactive: -0.004
AFMID isoform 2 (UniProt Q63HM1)	inactive: 0.192
AKR7L (UniProt Q8NHP1)	inactive: 0.083
AIMP2 isoform 2 (UniProt Q13155)	inactive: 0.089
ACTB (UniProt C9JTX5)	inactive: -0.11
ACTN4 (UniProt K7EJH8)	inactive: 0.064
ADCK5 (UniProt Q3MIX3)	inactive: 0.031
AJUBA (UniProt Q96IF1)	inactive: 0.217
AFDN (UniProt H0Y948)	inactive: -0.065

compound: CC1=C(C=C(C=C1)NC(=O)C2=CC(=CC=C2)N(C)C)NC(=O)C3=CC=C(C=C3)O; test: as above
How it was run: as §1

Target	log2 fold change
ADPRM (UniProt Q3LIE5)	inactive: 0.078
ACSS1 (UniProt Q9NUB1)	inactive: 0.06
AFMID isoform 2 (UniProt Q63HM1)	inactive: 0.028
ADCY3 (UniProt O60266)	inactive: 0.011
ACTN4 (UniProt H7C144)	inactive: 0.025
AIMP2 isoform 2 (UniProt Q13155)	inactive: 0.023
AHCTF1 isoform 2 (UniProt Q8WYP5)	inactive: 0.057
AKR1B10 (UniProt O60218)	inactive: 1.48
ACTN4 (UniProt K7EJH8)	inactive: 0.007
ADAD1 (UniProt Q96M93)	inactive: 0.015

compound: CC1=CC=C(C=C1)SC2=C3C=C(SC3=CN=C2)C(=O)N; test: as above
How it was run: as §1

Target	log2 fold change
ADK, A0A5F9ZH76	inactive: 0
ACSS1 (UniProt Q9NUB1)	inactive: -0.198
AGO2 (UniProt E5RJY2)	inactive: -0.015
ACTG1 (UniProt K7EM38)	inactive: 0.152
AKR7L (UniProt Q8NHP1)	inactive: 0.027
ACTB, A0A2R8YEA7	inactive: 0.174
AIMP2 isoform 2 (UniProt Q13155)	inactive: 0
ACTB (UniProt C9JUM1)	inactive: 0.146
AHCTF1 isoform 2 (UniProt Q8WYP5)	inactive: -0.029
ACTB (UniProt C9JTX5)	inactive: 0.112
ACTN4 (UniProt K7EJH8)	inactive: -0.052
ADCK5 (UniProt Q3MIX3)	inactive: -0.016
AHSP (UniProt Q9NZD4)	inactive: 0.124
AFDN (UniProt A8MQ02)	inactive: 0.018
AGTRAP isoform 2 (UniProt Q6RW13)	inactive: 0.005
ADAD1 (UniProt Q96M93)	inactive: -0.066
